Literature values, collected in patent US20220257490A1, “METHOD FOR DYEING KERATINOUS MATERIAL, COMPRISING THE USE OF AN ORGANOSILICON COMPOUND, A COLORED EFFECT PIGMENT AND A FILM-FORMING POLYMER IV” (Henkel AG & Co. KGaA, priority 2019, published 2022).

Details: 25° C.

solubility in water: more than 20 % by weight
SMILES: CCN(Cc1cccc(S(=O)(=O)[O-])c1)c1ccc(C(=C2C=CC(=[N+](CC)Cc3cccc(S(=O)(=O)[O-])c3)C=C2)c2ccccc2S(=O)(=O)[O-])cc1.[Na+].[Na+] [Acid Blue 9]
